# According to patent US9556237B2 (priority 2012, dated 2017):
# Protein sequences, listed by entry. Tags and fused reporters are not part of them. Residues count along the entry.
# UniProt P21401, 691-1197 limits assumed: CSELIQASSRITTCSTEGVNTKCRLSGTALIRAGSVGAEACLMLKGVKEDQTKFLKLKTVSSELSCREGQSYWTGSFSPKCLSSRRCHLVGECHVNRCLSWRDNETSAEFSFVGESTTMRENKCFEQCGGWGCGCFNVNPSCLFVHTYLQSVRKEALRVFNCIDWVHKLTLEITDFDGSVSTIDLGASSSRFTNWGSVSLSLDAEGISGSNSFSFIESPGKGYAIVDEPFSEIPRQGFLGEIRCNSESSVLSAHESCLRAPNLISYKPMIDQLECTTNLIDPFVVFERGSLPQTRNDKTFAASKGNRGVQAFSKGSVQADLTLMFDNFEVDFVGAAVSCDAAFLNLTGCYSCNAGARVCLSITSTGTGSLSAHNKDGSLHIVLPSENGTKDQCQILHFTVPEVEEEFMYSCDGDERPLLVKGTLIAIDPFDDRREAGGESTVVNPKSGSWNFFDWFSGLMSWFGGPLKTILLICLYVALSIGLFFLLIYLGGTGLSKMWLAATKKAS
# Not every detail of the peptide structures is certain; ends, links or a residue may be inferred. Peptide text beside a SMILES is read from it.
# Legend:
# VSV-luc = type: cell-based, vesicular stomatitis virus
# RVF-VSV-luc = type: cell-based, Rift Valley fever virus
# RVFV-Gc = RVFV-Gc (Rift valley fever virus, UniProt P21401); type: binding
structure (smiles),measurement,setting,value
"CSCC[C@H](N)C(=O)N[C@@H](Cc1ccccc1)C(=O)N[C@@H](CC(C)C)C(=O)NCC(=O)N[C@@H](Cc1c[nH]c2ccccc12)C(=O)N[C@@H](CO)C(=O)N[C@@H](Cc1ccccc1)C(=O)N[C@@H](CC(=O)O)C(=O)N[C@@H](Cc1ccccc1)C(=O)NCC(=O)N[C@@H](CO)C(=O)N[C@@H](CC(C)C)C(=O)N[C@@H](Cc1c[nH]c2ccccc12)C(=O)NCC(=O)N[C@@H](CC(N)=O)C(=O)N[C@@H](CCCCN)C(=O)N1CCC[C@H]1C(=O)N[C@@H](Cc1c[nH]c2ccccc12)C(=O)N[C@@H](Cc1ccccc1)C(=O)O [RVFV-6sc, MFLGWSFDFGSLWGNKPWF, reference compound] (H-MFLGWSFDFGSLWGNKPWF-OH)",dose-response inhibition of VSV-luc pseudovirus,VSV-luc,minimal impact on viral infectivity
same,dose-response inhibition of RVFV-VSV-luc pseudovirus,RVF-VSV-luc,minimal impact on viral infectivity
same,precipitation of Gc from RVFV-MP12,RVFV-Gc,to a lesser extent
